Measured data: PubChem BioAssay AID1508597 (Cure First, 2020)

- Screen: 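Knock-downs altering ovarian cancer cell survival with or without PARP inhibitor rucaparib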 (primary screen)
- System: human ovarian carcinoma lines grown from tumours: OCI-P5x (papillary serous) and OCI-C5x (clear cell)
- Knock-down reagent: siRNA pool against human genes, 1.25 pmol siRNA per well
- Time to read-out: 72 h or 96 h, depending on the cell culture
- Conditions: rucaparib 20 µM (about IC30) or vehicle, present until read-out
- Rucaparib or vehicle: Vehicle
- Cell line: OCI-C5x (clear cell)
- Detection: 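Luminescent ATP-based viability assay read 72 or 96 h after transfection, depending on culture, given as normalised percent viability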
- Scale: viability, normalised: higher = more viable cells remaining
- Rule for the call: 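a well counts as a hit if its normalised viability is under 80 percent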
- Calls: active = viability under 80%; inactive = viability 80% or more
Shown is an unselected part of the about 2,100 reagents, in one setting of the screen. 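Calls flag viability under 80% in either arm, not effects specific to rucaparib; the reference for percent is not stated.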 Entries without a mark were called inactive. The numbers tell different reagents against one gene apart. Reagent sequences are not shown. Not given: the 100% reference.

gene | reagent no. | technical replicate | viability, normalised (%)
EPHB6 (EPH receptor B6) | 1 | 1 | 64 (active)
EPHB6 (EPH receptor B6) | 1 | 2 | 81.1
EPHB6 (EPH receptor B6) | 1 | 3 | 51.3 (active)
MACROH2A2 (macroH2A.2 histone) | 1 | 1 | 42.2 (active)
MACROH2A2 (macroH2A.2 histone) | 1 | 2 | 31 (active)
MACROH2A2 (macroH2A.2 histone) | 1 | 3 | 36.5 (active)
AKAP1 (A-kinase anchoring protein 1) | 1 | 1 | 44.5 (active)
AKAP1 (A-kinase anchoring protein 1) | 1 | 2 | 39.9 (active)
AKAP1 (A-kinase anchoring protein 1) | 1 | 3 | 44.3 (active)
MED22 (mediator complex subunit 22) | 1 | 1 | 51.2 (active)
MED22 (mediator complex subunit 22) | 1 | 2 | 47.3 (active)
MED22 (mediator complex subunit 22) | 1 | 3 | 47.6 (active)
TSPYL2 (TSPY like 2) | 1 | 1 | 55.6 (active)
TSPYL2 (TSPY like 2) | 1 | 2 | 52.6 (active)
TSPYL2 (TSPY like 2) | 1 | 3 | 43.4 (active)
MKNK2 (MAPK interacting serine/threonine kinase 2) | 1 | 1 | 62.3 (active)
MKNK2 (MAPK interacting serine/threonine kinase 2) | 1 | 2 | 83.2
MKNK2 (MAPK interacting serine/threonine kinase 2) | 1 | 3 | 65.2 (active)
ZFAT (zinc finger and AT-hook domain containing) | 1 | 1 | 24.2 (active)
ZFAT (zinc finger and AT-hook domain containing) | 1 | 2 | 21.4 (active)
ZFAT (zinc finger and AT-hook domain containing) | 1 | 3 | 17.3 (active)
RCBTB1 (RCC1 and BTB domain containing protein 1) | 1 | 1 | 59.2 (active)
RCBTB1 (RCC1 and BTB domain containing protein 1) | 1 | 2 | 44.1 (active)
RCBTB1 (RCC1 and BTB domain containing protein 1) | 1 | 3 | 56.2 (active)
NR3C1 (nuclear receptor subfamily 3 group C member 1) | 1 | 1 | 31.5 (active)
NR3C1 (nuclear receptor subfamily 3 group C member 1) | 1 | 2 | 34.4 (active)
NR3C1 (nuclear receptor subfamily 3 group C member 1) | 1 | 3 | 40.2 (active)
PHKG1 (phosphorylase kinase catalytic subunit gamma 1) | 1 | 1 | 58 (active)
PHKG1 (phosphorylase kinase catalytic subunit gamma 1) | 1 | 2 | 51.6 (active)
PHKG1 (phosphorylase kinase catalytic subunit gamma 1) | 1 | 3 | 62.6 (active)
NRCAM (neuronal cell adhesion molecule) | 1 | 1 | 28.5 (active)
NRCAM (neuronal cell adhesion molecule) | 1 | 2 | 31.1 (active)
NRCAM (neuronal cell adhesion molecule) | 1 | 3 | 36.7 (active)
PIKFYVE (phosphoinositide kinase, FYVE-type zinc finger containing) | 1 | 1 | 52.7 (active)
PIKFYVE (phosphoinositide kinase, FYVE-type zinc finger containing) | 1 | 2 | 43.8 (active)
PIKFYVE (phosphoinositide kinase, FYVE-type zinc finger containing) | 1 | 3 | 29.5 (active)
PLK2 (polo like kinase 2) | 1 | 1 | 69.7 (active)
PLK2 (polo like kinase 2) | 1 | 2 | 62 (active)
PLK2 (polo like kinase 2) | 1 | 3 | 42.4 (active)
NTRK2 (neurotrophic receptor tyrosine kinase 2) | 1 | 1 | 70.2 (active)
NTRK2 (neurotrophic receptor tyrosine kinase 2) | 1 | 2 | 40.5 (active)
NTRK2 (neurotrophic receptor tyrosine kinase 2) | 1 | 3 | 47.3 (active)
JADE1 (jade family PHD finger 1) | 1 | 1 | 47.3 (active)
JADE1 (jade family PHD finger 1) | 1 | 2 | 54.7 (active)
JADE1 (jade family PHD finger 1) | 1 | 3 | 39.6 (active)

4 entries from above, sorted by “viability, normalised (%)”, ascending.
gene | reagent no. | technical replicate | viability, normalised (%)
NRCAM (neuronal cell adhesion molecule) | 1 | 1 | 28.5 (active)
NRCAM (neuronal cell adhesion molecule) | 1 | 2 | 31.1 (active)
NRCAM (neuronal cell adhesion molecule) | 1 | 3 | 36.7 (active)
PIKFYVE (phosphoinositide kinase, FYVE-type zinc finger containing) | 1 | 1 | 52.7 (active)

The listing continues.
gene | reagent no. | technical replicate | viability, normalised (%)
SMPD2 (sphingomyelin phosphodiesterase 2) | 1 | 1 | 82
SMPD2 (sphingomyelin phosphodiesterase 2) | 1 | 2 | 51.2 (active)
SMPD2 (sphingomyelin phosphodiesterase 2) | 1 | 3 | 57.4 (active)
PDE1C (phosphodiesterase 1C) | 1 | 1 | 67.1 (active)
PDE1C (phosphodiesterase 1C) | 1 | 2 | 45.2 (active)
PDE1C (phosphodiesterase 1C) | 1 | 3 | 45.4 (active)
CDK6 (cyclin dependent kinase 6) | 1 | 1 | 79.5 (active)
CDK6 (cyclin dependent kinase 6) | 1 | 2 | 53 (active)
CDK6 (cyclin dependent kinase 6) | 1 | 3 | 62.5 (active)
IP6K3 (inositol hexakisphosphate kinase 3) | 1 | 1 | 53.3 (active)
IP6K3 (inositol hexakisphosphate kinase 3) | 1 | 2 | 49.5 (active)
IP6K3 (inositol hexakisphosphate kinase 3) | 1 | 3 | 61.3 (active)
IP6K3 (inositol hexakisphosphate kinase 3) | 2 | 1 | 49.3 (active)
IP6K3 (inositol hexakisphosphate kinase 3) | 2 | 2 | 67.8 (active)
IP6K3 (inositol hexakisphosphate kinase 3) | 2 | 3 | 45.4 (active)
PRMT9 (protein arginine methyltransferase 9) | 1 | 1 | 36.3 (active)
PRMT9 (protein arginine methyltransferase 9) | 1 | 2 | 31.5 (active)
PRMT9 (protein arginine methyltransferase 9) | 1 | 3 | 39.7 (active)
BAZ1B (bromodomain adjacent to zinc finger domain 1B) | 1 | 1 | 37.3 (active)
BAZ1B (bromodomain adjacent to zinc finger domain 1B) | 1 | 2 | 48.8 (active)
BAZ1B (bromodomain adjacent to zinc finger domain 1B) | 1 | 3 | 40.3 (active)
TBL1Y (transducin beta like 1 Y-linked) | 1 | 1 | 36.3 (active)
TBL1Y (transducin beta like 1 Y-linked) | 1 | 2 | 63.3 (active)
TBL1Y (transducin beta like 1 Y-linked) | 1 | 3 | 55.5 (active)
PRMT8 (protein arginine methyltransferase 8) | 1 | 1 | 33.7 (active)
PRMT8 (protein arginine methyltransferase 8) | 1 | 2 | 39.8 (active)
PRMT8 (protein arginine methyltransferase 8) | 1 | 3 | 45 (active)
TDRD9 (tudor domain containing 9) | 1 | 1 | 55.7 (active)
TDRD9 (tudor domain containing 9) | 1 | 2 | 56.2 (active)
TDRD9 (tudor domain containing 9) | 1 | 3 | 60.3 (active)
